# Literature values, collected in patent US9568466B2, “In vitro assay for predicting renal proximal tubular cell toxicity” (priority 2012, dated 2017).
# Test system: renal proximal tubule
# Conditions: in vivo; cited from earlier work
structure (smiles),measurement,value
"CC(C)c1c(C(=O)Nc2ccccc2)c(-c2ccccc2)c(-c2ccc(F)cc2)n1CC[C@@H](O)C[C@@H](O)CC(=O)O [Compound 41, Atorvastatin]",nephrotoxicity in humans / direct damage of the renal proximal tubule,non-nephrotoxic in humans
